Measured values as given in article PMC8371918.
No constants are given. Whether binding was seen depends on the method and setting. In cells and extracts the contact can be indirect. Some entries that bind do so weakly or less than the wild type.

Chains of the proteins cited; added tags and fusions are not shown.
UniProt O35800: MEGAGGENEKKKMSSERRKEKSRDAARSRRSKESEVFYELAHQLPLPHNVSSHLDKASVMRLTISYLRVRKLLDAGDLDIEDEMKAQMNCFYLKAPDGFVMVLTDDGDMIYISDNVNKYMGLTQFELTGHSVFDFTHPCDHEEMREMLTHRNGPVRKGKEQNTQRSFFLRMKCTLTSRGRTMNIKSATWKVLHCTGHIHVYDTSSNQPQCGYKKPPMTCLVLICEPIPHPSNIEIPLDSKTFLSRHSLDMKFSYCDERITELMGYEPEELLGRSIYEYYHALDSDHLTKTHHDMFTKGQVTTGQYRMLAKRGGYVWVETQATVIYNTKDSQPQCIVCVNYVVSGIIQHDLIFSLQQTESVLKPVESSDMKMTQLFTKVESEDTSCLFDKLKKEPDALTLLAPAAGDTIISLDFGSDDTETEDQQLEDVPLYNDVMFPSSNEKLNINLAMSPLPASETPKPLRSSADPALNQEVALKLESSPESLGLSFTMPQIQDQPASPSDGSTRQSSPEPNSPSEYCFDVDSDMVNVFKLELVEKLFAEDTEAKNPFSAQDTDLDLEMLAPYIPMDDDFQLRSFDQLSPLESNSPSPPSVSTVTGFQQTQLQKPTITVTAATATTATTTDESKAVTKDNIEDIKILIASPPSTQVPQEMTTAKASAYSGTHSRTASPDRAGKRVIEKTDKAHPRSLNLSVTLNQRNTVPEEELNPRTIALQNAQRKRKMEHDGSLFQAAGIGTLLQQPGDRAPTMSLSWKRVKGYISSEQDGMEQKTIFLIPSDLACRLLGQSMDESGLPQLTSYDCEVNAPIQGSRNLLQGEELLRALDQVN
UniProt P10361: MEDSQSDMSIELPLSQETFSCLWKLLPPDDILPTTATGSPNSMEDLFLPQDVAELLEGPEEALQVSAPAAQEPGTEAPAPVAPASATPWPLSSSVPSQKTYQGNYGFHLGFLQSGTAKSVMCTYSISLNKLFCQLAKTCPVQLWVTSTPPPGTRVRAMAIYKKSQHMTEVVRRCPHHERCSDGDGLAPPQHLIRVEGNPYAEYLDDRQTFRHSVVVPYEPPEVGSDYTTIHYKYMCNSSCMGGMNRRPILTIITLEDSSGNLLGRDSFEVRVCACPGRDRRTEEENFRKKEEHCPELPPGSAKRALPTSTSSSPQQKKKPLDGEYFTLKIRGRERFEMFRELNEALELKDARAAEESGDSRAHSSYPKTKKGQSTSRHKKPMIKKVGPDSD

What was measured:
[1] = biological target: hypoxia-inducible factor-1 alpha (rat (endogenous in tenocytes)) (UniProt O35800); assay: co-IP; lysate (RIPA buffer) of rat tenocytes transfected with pCDH-COX2 for 48 h; protein A + G beads with antibodies to COX2, HIF-1α or p53, 4°C, 4 h, then immunoblot; cells without TSA (the same pairs were also seen with 500 nM TSA, with COX2-HIF-1α and p300-HIF-1α decreased)
[2] = biological target: p53 (rat (endogenous in tenocytes)) (UniProt P10361); assay: as above

| binding [1] | binding [2] | Molecule |
| --- | --- | --- |
| binds | – | p53 (from UniProt P10361 1-391) |
| binds | binds | COX2 (protein, UniProt P35355 18-604) ANPCCSNPCQNRGECMSIGFDQYKCDCTRTGFYGENCTTPEFLTRIKLLLKPTPNTVHYILTHFKGVWNIVNNIPFLRNSIMRYVLTSRSHLIDSPPTYNVHYGYKSWEAFSNLSYYTRALPPVADDCPTPMGVKGNKELPDSKEVLEKVLLRREFIPDPQGTNMMFAFFAQHFTHQFFKTDQKRGPGFTRGLGHGVDLNHVYGETLDRQHKLRLFQDGKLKYQVIGGEVYPPTVKDTQVDMIYPPHVPEHLRFAVGQEVFGLVPGLMMYATIWLREHNRVCDILKQEHPEWDDERLFQTSRLILIGETIKIVIEDYVQHLSGYHFKLKFDPELLFNQQFQYQNRIASEFNTLYHWHPLLPDTFNIEDQEYTFKQFLYNNSILLEHGLAHFVESFTRQIAGRVAGGRNVPIAVQAVAKASIDQSREMKYQSLNEYRKRFSLKPYTSFEELTGEKEMAAELKALYHDIDAMELYPALLVEKPRPDAIFGETMVELGAPFSLKGLMGNPICSPQYWKPSTFGGEVGFRIINTASIQSLICNNVKGCPFASFNVQDPQPTKTATINASASHSRLDDINPTVLIKRRSTEL |
